The values that follow come from EP4810513A1 (Genexine, Inc., dated 2026).

By UniProt entry, the sequences of proteins in these tests, tags left out.
UniProt P48431: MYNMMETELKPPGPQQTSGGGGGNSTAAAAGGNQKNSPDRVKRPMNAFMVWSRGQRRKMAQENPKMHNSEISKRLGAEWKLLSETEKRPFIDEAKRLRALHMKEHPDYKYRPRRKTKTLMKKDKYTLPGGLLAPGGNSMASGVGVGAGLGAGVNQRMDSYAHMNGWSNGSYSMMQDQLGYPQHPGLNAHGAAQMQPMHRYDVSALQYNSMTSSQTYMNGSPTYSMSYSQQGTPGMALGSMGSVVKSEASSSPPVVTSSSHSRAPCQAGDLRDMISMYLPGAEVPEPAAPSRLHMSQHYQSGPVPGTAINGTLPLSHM

Experiment [1] addresses huSOX2 (Cusabio, Cat no. CSB-EP022426HU(M)) antigen (human) (UniProt P48431). Briefly: 4 rounds of panning on huSOX2 (Cusabio) antigen.
In experiment [2] the target is huSOX2 protein with N-terminal Halo tag (pHTN vector), expressed in HEK293T cells (human) (UniProt P48431). As to the kind of experiment: NanoBRET in HEK293T cells, NanoLuc-VHH and Halo-huSOX2. On the technique in general: Bioluminescence resonance energy transfer reports proximity on the nanometre scale.

Results are given in words; binding and its absence hold for the method and conditions named. Some binding calls cover weakened binding; strength is not graded here. For some assays here: Where a sequence is shown, tags or fusion partners need not be part of it.

B1: S14 (huSOX2-specific VHH antibody) (VHH)
VHH: QVKLEESGGGSVQTGGSLRLTCAASGSIFSMNRMGWFRQAPGKERELVAVIDSKRNKTHYADSVKGRFTISRDNAKNTVDLQMNSLKPEDTAIYYCTAWTGRPPRGYWGQGTQVTVSS
Regarding B1, the binding result in experiment [1] was “binds”.

B2: S14 with N-terminal NanoLuc tag (pNLF1-N-S14), expressed in HEK293T cells (VHH, not shown: large carriers)
VHH: QVKLEESGGGSVQTGGSLRLTCAASGSIFSMNRMGWFRQAPGKERELVAVIDSKRNKTHYADSVKGRFTISRDNAKNTVDLQMNSLKPEDTAIYYCTAWTGRPPRGYWGQGTQVTVSS
For the molecule B2, the binding result in experiment [2] is reported as “binds”.
